In test [1] the target is T1, MTDH as used in the reciprocal co-immunoprecipitations of Supplemental Fig. S4G-J (human) (UniProt Q86UE4).
T1 sequence: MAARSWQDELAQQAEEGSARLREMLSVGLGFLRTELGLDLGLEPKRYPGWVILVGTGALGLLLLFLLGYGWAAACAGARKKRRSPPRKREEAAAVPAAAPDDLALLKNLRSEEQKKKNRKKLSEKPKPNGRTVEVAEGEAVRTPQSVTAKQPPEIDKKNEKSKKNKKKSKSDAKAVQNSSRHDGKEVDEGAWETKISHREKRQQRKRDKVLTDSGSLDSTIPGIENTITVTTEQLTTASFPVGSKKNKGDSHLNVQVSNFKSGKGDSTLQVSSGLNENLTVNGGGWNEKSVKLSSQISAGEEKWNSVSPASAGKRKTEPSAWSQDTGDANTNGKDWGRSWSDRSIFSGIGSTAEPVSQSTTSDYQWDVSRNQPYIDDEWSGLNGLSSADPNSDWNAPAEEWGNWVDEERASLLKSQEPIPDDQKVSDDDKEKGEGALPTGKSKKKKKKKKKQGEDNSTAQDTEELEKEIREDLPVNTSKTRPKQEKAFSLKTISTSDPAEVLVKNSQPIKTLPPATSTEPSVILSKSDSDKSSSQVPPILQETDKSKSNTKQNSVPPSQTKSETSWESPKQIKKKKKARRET
Description: co-IP; Supplemental Fig. S4H, J: reciprocal, MTDH immunoprecipitated, ZDHHC or ZDHHS detected; NETN buffer, anti-Flag affinity gel or anti-HA magnetic beads, 4°C overnight.

The next test addresses T2, SF-tagged ZDHHC1 (UniProt Q8WTX9).
T2 sequence: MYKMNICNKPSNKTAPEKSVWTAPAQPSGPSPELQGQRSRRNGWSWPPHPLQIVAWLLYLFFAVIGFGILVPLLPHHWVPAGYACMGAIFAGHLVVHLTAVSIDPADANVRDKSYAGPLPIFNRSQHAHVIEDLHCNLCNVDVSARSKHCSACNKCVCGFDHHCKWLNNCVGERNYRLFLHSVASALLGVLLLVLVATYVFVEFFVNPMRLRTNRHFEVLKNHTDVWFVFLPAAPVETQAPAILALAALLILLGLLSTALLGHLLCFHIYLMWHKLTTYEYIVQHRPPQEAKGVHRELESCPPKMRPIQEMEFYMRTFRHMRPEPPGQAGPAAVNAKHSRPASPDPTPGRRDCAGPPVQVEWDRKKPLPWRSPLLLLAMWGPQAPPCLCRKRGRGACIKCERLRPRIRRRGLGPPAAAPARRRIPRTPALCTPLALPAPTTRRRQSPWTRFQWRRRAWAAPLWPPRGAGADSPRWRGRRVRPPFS
The test is described as follows: co-IP; Supplemental Fig. S4G, I: ZDHHC or ZDHHS immunoprecipitated, MTDH detected; NETN buffer, anti-Flag affinity gel or anti-HA magnetic beads, 4°C overnight.

No constants are given. Whether binding was seen depends on the method and setting. Binding seen in cells or lysates may run through a third protein. Some entries that bind do so weakly or less than the wild type. Tags and fused reporters may be left off the sequences shown.

B1: SF-tagged ZDHHC1 (enzyme, UniProt Q8WTX9 1-485)
chain: MYKMNICNKPSNKTAPEKSVWTAPAQPSGPSPELQGQRSRRNGWSWPPHPLQIVAWLLYLFFAVIGFGILVPLLPHHWVPAGYACMGAIFAGHLVVHLTAVSIDPADANVRDKSYAGPLPIFNRSQHAHVIEDLHCNLCNVDVSARSKHCSACNKCVCGFDHHCKWLNNCVGERNYRLFLHSVASALLGVLLLVLVATYVFVEFFVNPMRLRTNRHFEVLKNHTDVWFVFLPAAPVETQAPAILALAALLILLGLLSTALLGHLLCFHIYLMWHKLTTYEYIVQHRPPQEAKGVHRELESCPPKMRPIQEMEFYMRTFRHMRPEPPGQAGPAAVNAKHSRPASPDPTPGRRDCAGPPVQVEWDRKKPLPWRSPLLLLAMWGPQAPPCLCRKRGRGACIKCERLRPRIRRRGLGPPAAAPARRRIPRTPALCTPLALPAPTTRRRQSPWTRFQWRRRAWAAPLWPPRGAGADSPRWRGRRVRPPFS
Turning to B1, the binding result in test [1] is “binds”.

B2: MTDH as used in the reciprocal co-immunoprecipitations of Supplemental Fig. S4G-J (protein, UniProt Q86UE4 1-582)
chain: MAARSWQDELAQQAEEGSARLREMLSVGLGFLRTELGLDLGLEPKRYPGWVILVGTGALGLLLLFLLGYGWAAACAGARKKRRSPPRKREEAAAVPAAAPDDLALLKNLRSEEQKKKNRKKLSEKPKPNGRTVEVAEGEAVRTPQSVTAKQPPEIDKKNEKSKKNKKKSKSDAKAVQNSSRHDGKEVDEGAWETKISHREKRQQRKRDKVLTDSGSLDSTIPGIENTITVTTEQLTTASFPVGSKKNKGDSHLNVQVSNFKSGKGDSTLQVSSGLNENLTVNGGGWNEKSVKLSSQISAGEEKWNSVSPASAGKRKTEPSAWSQDTGDANTNGKDWGRSWSDRSIFSGIGSTAEPVSQSTTSDYQWDVSRNQPYIDDEWSGLNGLSSADPNSDWNAPAEEWGNWVDEERASLLKSQEPIPDDQKVSDDDKEKGEGALPTGKSKKKKKKKKKQGEDNSTAQDTEELEKEIREDLPVNTSKTRPKQEKAFSLKTISTSDPAEVLVKNSQPIKTLPPATSTEPSVILSKSDSDKSSSQVPPILQETDKSKSNTKQNSVPPSQTKSETSWESPKQIKKKKKARRET
Consider B2, for which the binding result in the test with SF-tagged ZDHHC1 is “binds”.

The values above are taken from article PMC12794514.
